Measurements as given in publication PMC9464412.
Results are given in words; binding and its absence hold for the method and conditions named. Binding seen in cells or lysates may run through a third protein. Some binding calls cover weakened binding; strength is not graded here. Sequences can lack the tags named with a protein.

Molecular target: T1, Flag-tagged QKI (Quaking) (UniProt Q9QYS9)
T1 sequence: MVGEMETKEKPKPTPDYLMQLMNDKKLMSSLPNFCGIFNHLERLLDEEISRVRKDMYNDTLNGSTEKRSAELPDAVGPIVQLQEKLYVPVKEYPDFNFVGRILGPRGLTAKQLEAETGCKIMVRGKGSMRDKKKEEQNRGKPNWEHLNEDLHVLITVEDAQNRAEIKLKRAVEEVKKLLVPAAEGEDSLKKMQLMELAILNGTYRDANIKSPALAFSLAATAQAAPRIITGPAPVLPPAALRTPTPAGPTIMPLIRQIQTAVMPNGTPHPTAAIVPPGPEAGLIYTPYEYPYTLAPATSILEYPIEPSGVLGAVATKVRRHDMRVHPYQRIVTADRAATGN
Assay: co-IP; RAW264.7 cells transfected with Flag-tagged QKI; whole-cell lysate immunoprecipitated with anti-Flag, blotted for EDC3 and DDX6; IP buffer 50 mM Tris-Cl pH 7.5, 150 mM KCl, 0.5% NP40

binding: binds
B1: EDC3, endogenous (protein, UniProt Q8K2D3 1-508)
chain: MAMDWLGSIVSINCGDSLGVYQGRVSAVDQVSQTISLTRPFHNGVKCLVPEVTFRAGDITELKILEIPGPGDNQQVGDLHQTELGPSGVGYQMSISQNGTGKVVKKPASSSSAPQSIPKRTDVKSQDVAISPQQQQCSKSYVDRHMESLSQSKSFRRRHNSWSSSSRHPNQATPKKSGLKNGQMKNKDDECFGDDIEELPDTDFDFEGNLALFDKAAVFEEIDTYERRSGSRSRGVPNERPARYRHDENILESEPIVYRRITVPHSVSKEFCTDSGLVVPSVSYELHKKLLSVAEKHGLTLERRLEMTGVCASQMALTLLGGPNRLNPKNVHQRPTVALLCGPHVKGAQGISCGRHLANHDVQVILFLPNFVKMLESITNELSLFSKTQGQQVSSLRDLPASPVDLVINCLDCPENAFLRDQPWYKAAVAWANQNRAPVLSIDPPVHEVEQGIDAKWSLALGLPLPLGEHAGRVYLCDIGIPQQVFQEVGINYHSPFGCKFVIPLHSA
